Data published in PMC8214628.

Sequences of proteins named here, by UniProt entry; tags and fusion partners are left off.
UniProt P42229: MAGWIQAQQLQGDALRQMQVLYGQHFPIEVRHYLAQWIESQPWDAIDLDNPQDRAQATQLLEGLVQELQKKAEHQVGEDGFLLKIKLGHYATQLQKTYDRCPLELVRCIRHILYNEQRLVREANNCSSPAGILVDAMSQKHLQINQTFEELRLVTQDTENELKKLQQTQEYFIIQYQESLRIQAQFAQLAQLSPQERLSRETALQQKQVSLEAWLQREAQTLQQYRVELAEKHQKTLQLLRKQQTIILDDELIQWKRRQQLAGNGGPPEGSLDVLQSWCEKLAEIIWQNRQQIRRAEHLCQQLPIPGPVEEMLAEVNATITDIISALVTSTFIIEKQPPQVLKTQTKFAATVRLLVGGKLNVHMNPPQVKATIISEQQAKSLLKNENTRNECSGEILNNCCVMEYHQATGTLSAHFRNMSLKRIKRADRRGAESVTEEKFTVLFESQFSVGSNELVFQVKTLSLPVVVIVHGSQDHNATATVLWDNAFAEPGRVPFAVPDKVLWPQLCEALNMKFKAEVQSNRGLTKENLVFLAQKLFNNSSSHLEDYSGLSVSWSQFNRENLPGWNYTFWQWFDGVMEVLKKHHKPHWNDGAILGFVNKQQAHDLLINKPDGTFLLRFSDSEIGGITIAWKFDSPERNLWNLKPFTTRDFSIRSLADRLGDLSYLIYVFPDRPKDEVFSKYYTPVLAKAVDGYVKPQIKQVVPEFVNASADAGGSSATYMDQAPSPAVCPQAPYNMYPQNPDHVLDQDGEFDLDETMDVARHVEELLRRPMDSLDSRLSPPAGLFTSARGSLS
UniProt P51692: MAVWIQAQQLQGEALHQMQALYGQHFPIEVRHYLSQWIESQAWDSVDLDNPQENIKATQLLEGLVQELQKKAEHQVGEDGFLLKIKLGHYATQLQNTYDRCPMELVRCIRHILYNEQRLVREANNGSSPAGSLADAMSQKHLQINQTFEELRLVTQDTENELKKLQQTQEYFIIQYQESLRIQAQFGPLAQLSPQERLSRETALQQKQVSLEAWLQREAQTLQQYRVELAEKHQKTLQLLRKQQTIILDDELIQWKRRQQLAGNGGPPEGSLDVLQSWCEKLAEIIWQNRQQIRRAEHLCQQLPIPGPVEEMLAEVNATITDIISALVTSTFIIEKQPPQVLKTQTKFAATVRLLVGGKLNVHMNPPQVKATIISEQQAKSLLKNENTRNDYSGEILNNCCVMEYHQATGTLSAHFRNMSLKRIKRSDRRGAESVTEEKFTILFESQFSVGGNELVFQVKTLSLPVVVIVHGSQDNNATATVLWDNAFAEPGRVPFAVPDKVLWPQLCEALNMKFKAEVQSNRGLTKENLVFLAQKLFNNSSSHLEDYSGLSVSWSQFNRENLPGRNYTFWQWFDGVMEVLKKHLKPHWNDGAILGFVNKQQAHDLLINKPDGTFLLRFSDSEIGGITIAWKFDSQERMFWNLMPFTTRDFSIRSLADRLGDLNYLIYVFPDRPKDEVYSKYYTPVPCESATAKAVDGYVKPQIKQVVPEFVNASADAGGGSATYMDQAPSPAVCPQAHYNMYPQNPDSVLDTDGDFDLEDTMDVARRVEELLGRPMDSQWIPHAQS

Molecular target: FLAG-HA-STAT5A (UniProt P42229)
Assay: affinity purification with mass spectrometry; tandem affinity purification (TAP-MS) of STAT5A complexes from 293T cells stably expressing FLAG-HA-STAT5A; SDS-PAGE, mass spectrometry

binding: binds
Substance: endogenous STAT5B (from UniProt P51692 1-787)

Results are given in words; binding and its absence hold for the method and conditions named. In cells and extracts the contact can be indirect. A yes stands for co-enrichment or nearness to the bait. Other partners may have been found.
